Experimental data from article PMC11372188.
Results are given in words; binding and its absence hold for the method and conditions named. In cells and extracts the contact can be indirect. Some results given as binding are weak or reduced against the parent protein; the word gives no strength.

Sequences of proteins named here, by UniProt entry; tags and fusion partners are left off.
UniProt P49841: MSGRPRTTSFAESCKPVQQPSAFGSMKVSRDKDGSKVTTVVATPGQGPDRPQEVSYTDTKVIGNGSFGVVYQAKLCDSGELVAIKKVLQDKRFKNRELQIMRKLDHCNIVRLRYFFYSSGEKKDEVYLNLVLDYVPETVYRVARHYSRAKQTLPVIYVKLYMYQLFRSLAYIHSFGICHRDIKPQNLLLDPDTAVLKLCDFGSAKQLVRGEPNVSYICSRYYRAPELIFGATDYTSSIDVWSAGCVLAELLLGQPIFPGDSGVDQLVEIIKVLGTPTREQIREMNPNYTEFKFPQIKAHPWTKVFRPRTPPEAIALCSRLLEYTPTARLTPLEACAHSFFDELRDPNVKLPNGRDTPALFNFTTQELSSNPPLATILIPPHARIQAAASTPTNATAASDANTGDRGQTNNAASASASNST

Biological target: glycogen synthase kinase 3β (GSK3β) (human (endogenous in H1975/OR and PC9/OR)) (UniProt P49841)
Experiment: co-IP; endogenous proteins in lysates of H1975/OR and PC9/OR cells (IP/Western lysing solution with phosphatase and protease inhibitor cocktails); antibodies on protein A/G magnetic beads, overnight with protein extracts at 4 °C, three washes, immunoblotting; IgG as negative control

Q: With “proviral integration site for Moloney murine leukemia virus 1 (PIM1) (from UniProt P11309-1 1-313)” as the substance, how does the binding read?
A: binds
